# Primary screen of a compound library

The chains behind the UniProt entries cited, without tags or fusion partners. Residues count along the entry.
UniProt A4I591, 1-473: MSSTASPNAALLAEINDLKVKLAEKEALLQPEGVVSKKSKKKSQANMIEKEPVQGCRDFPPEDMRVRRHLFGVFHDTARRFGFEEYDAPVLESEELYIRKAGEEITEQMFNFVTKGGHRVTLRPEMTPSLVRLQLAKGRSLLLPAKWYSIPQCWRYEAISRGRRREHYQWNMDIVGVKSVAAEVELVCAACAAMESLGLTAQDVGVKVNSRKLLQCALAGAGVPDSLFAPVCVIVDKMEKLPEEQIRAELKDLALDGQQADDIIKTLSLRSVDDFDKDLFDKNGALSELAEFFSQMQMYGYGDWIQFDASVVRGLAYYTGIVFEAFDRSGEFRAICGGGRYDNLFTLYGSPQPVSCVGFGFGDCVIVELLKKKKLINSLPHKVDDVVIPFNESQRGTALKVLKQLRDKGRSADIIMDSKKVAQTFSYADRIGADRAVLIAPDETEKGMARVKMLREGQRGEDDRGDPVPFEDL

Results are given as percent effect. The controls that fix the scale are not given in the record; negative values are as filed. The compounds are a random part of those screened.

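Histidine-tRNA ligase, Leishmania infantum (UniProt A4I591). Enzyme assay of histidyl-tRNA synthetase; the read-out is not stated. Compounds at 30 µM. Direction is inferred from retests: higher values go with stronger inhibition. The assay is labelled LdHisRS but filed under L. infantum. Size under these conditions: about 69,000 compounds, about 410 of them at 50% or above in at least one test.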

structure | effect
O=C(NC1CCCC1)c1ccc(C2CCCNC2)nc1 (configuration not stated) | 11.72
Cc1cnc(N2CCC3(CCN(CC4CCCC4)C3=O)CC2)nc1 | -4.587
Cc1nn(C)c2c(=O)n(C)c(NCC3CCCO3)nc12 (configuration not stated) | 12.64
COCc1cnc2n1CCN(C(=O)c1cc3cc(Cl)ccc3o1)C2C (configuration not stated) | 2
Cc1nc([C@@H]2C[C@@H]3CCN(C(=O)Cc4cccs4)C[C@H]3O2)no1 | 10.91
CCCS(=O)(=O)N1CCN(Cc2ccco2)CC1 | 11.27
CC1=Nc2c(c(O)nn2C(C)C)C(c2cccnc2)S1 (configuration not stated) | 21.74
COc1ccccc1N1CCN(C(=O)CCc2nncn2C)C(C)C1 (configuration not stated) | 0
Cc1ccc(-c2nc(CNC3CCc4ncnn4C3)cs2)cc1 (configuration not stated) | 12.04
CC(=O)Nc1cc(-c2cccc(F)c2F)n[nH]1 | 13.83
CO[C@@H]1CCN(c2ncccn2)[C@H]1Cc1ccccc1 | 25
Nc1nccc(N2CCNC(C(=O)NCc3ccccn3)C2)n1 (configuration not stated) | 0
CNC(=O)C1Cn2ccnc2C2(CCN(Cc3cccc(C)n3)CC2)O1 (configuration not stated) | 7.519
COCCN1C[C@H]2[C@@H](C1)N(C(=O)COc1ccccc1)CC[C@H]2OC | 17.65
COc1cccc(-c2nc(C)c(C(=O)N[C@@H](CC(C)C)C(=O)O)s2)c1 | 13.16
CC1CCN(c2nc3c(cnn3-c3ccccc3)c(=O)[nH]2)CC1 | 9.333
Cc1nc(CN(C)C2CCN(Cc3c(C)noc3C)C2)no1 (configuration not stated) | 13.22
Cc1cc(CN(C)C(=O)NC2CCCC2)no1 | 3.306
CCS(=O)(=O)Nc1ccc(C(=O)NCCCN2CCCC2)cc1 | 20
Cc1cccc(C(=O)N2CCN(CCOC(C)C)CC2)n1 | 20
CCC1(C)Cc2ccccc2-c2nc(NCCO)nc(O)c21 (configuration not stated) | 7.895
CCOc1ncccc1NC(=O)N1CCN(c2ccc(O)cc2)CC1 | 29.36
Cc1cc(C)n(CC2CN(Cc3nc(-c4ccco4)no3)CCO2)n1 (configuration not stated) | 18.75
O=C(NC[C@H]1OC[C@@H](NCc2ccccn2)[C@@H]1O)c1ccncc1 | 24.32
CCS(=O)(=O)N1CC[C@@H]2[C@H](CC1)N(Cc1cccnc1)CCS2(=O)=O | 8.333
CCSc1cc(C(=O)NCc2ccc(C(=O)NC)cc2)ccn1 | 22.22
Cc1ccoc1C(=O)N1CC[C@H]2O[C@@H](C)C[C@H]2C1 | -5.66
CCOC(=O)N1CCN(C(=O)CCn2cccc2)CC1 | 23.68
CCc1nc(-c2ccc(C(=O)N3CCC4(CC3)OCCO4)cc2)no1 | 13.16
FC(F)(F)CCc1ccnc(NCc2csc(N3CCOCC3)n2)n1 | 7.853
Cc1cc(C)cc(CNC(C)c2c(C)nn(C)c2C)c1 (configuration not stated) | 7.143
CC(OCC1CC1)C(=O)N1CCCN(c2nc3ccccc3[nH]2)CC1 (configuration not stated) | 13.7
Cc1ccnc(C2CCCN2C(=O)CN(C)C)n1 (configuration not stated) | 10
Cc1cc(OCC(=O)N2CCCC(c3noc(C)n3)C2)no1 (configuration not stated) | 14.86
COCCCN1C(=O)c2ccc(C(=O)NCCc3c[nH]cn3)cc2C1=O | 5.128
Cc1oncc1C(=O)N1CCC2(CCN(Cc3cccc(F)c3)C2=O)C1 (configuration not stated) | 11.7
O=C(c1ccncc1)N1CCC(O)(Cn2ccc3ccncc32)CC1 | 11.11
O=C(NCc1ccccc1)N1CCC(Oc2ncccc2Cl)CC1 | -4.274
CCc1n[nH]c(C2CN(C(=O)c3ncoc3CC)CCO2)n1 (configuration not stated) | 5.769
O=c1[nH]c(-c2ccncc2)ncc1-c1ccnc(N2CCOCC2)n1 | 11.43
CCOc1ccc(CC(CNC(=O)c2ccoc2)C(N)=O)cc1 (configuration not stated) | 32
COCCNC(=O)Cn1c(-c2ccc(F)cc2)nc(C)c(CCO)c1=O | 17.39
O=C(NCC1CC1)C1CN(C(=O)c2cccs2)CC12CCOCC2 (configuration not stated) | 11.32
O=C1CCCN1c1cccc(CNCc2nc(C3CC3)no2)c1 | 18.07
c1ccc2c(N3CCCCC3Cn3cccn3)ncnc2c1 (configuration not stated) | 9.174
Cn1ccc(CN2CCN(CC3CC3)CC2)cc1=O | 10.26
Cc1nc(C)n(CC2CN(Cc3ccccc3OC(C)C)CCO2)n1 (configuration not stated) | 14.91
CN(CC(=O)N1CCCCC1c1nccs1)C1CC1 (configuration not stated) | -66.67
CCN(CC)CCC(=O)N1CCc2c(nc(N(C)C)nc2N(C)C)C1 | 8.065
CCc1nc(CN2CCC(C(=O)N(C)C)CC2)cs1 | 21.92
Cn1cnc(S(=O)(=O)NCC2(O)CCc3ccccc3C2)c1 (configuration not stated) | 0.8547
Cc1ccc(Cl)c(CN2CCC(c3nccn3C(C)C)CC2)c1F | 27.06
CS(=O)(=O)N1CCCC(Cc2ccnc(Nc3ccccn3)c2)C1 (configuration not stated) | 13.04
CC(=O)N(Cc1noc(C)n1)C1CCN(Cc2ccccn2)C1 (configuration not stated) | 20.51
FC(F)(F)Oc1cccc(CNC[C@H]2Cn3ccnc3CO2)c1 | 20.27
O=C([C@H]1COC[C@H]2CN(c3ncc(F)cn3)C[C@H]21)N1CCOCC1 | 1.709
Cc1cnc2n(c1=O)CC(C(=O)NCc1ccccc1Cl)CS2 (configuration not stated) | 5.128
Cn1nnc2cc(C(=O)N3CCC(Nc4cccnn4)CC3)ccc21 | 3.478
Nc1ccc(C(=O)N2CCCC(c3nccn3Cc3cscn3)C2)cn1 (configuration not stated) | 10.4
Cc1cccc(C(C)CNC(=O)N2CCOCC3(CCOCC3)C2)c1 (configuration not stated) | -3.896
O=c1cc(C2CCNCC2)nc(CCc2ccccn2)[nH]1 | 9.735
O=C(Cn1cccn1)NCC(c1cccs1)N1CCCC1 (configuration not stated) | 3.226

From ChEMBL document CHEMBL3988442, “University of Dundee, Small-Polar-MMV Screening Library” (2021).